Test results as given in the supplement of paper PMC10849652.
This is one part of the list.

Sequences of proteins named here, by UniProt entry; tags and fusion partners are left off. A change or cut given only in a name is not applied to a line headed by its entry.
UniProt Q9NR19, whole entry, looked up: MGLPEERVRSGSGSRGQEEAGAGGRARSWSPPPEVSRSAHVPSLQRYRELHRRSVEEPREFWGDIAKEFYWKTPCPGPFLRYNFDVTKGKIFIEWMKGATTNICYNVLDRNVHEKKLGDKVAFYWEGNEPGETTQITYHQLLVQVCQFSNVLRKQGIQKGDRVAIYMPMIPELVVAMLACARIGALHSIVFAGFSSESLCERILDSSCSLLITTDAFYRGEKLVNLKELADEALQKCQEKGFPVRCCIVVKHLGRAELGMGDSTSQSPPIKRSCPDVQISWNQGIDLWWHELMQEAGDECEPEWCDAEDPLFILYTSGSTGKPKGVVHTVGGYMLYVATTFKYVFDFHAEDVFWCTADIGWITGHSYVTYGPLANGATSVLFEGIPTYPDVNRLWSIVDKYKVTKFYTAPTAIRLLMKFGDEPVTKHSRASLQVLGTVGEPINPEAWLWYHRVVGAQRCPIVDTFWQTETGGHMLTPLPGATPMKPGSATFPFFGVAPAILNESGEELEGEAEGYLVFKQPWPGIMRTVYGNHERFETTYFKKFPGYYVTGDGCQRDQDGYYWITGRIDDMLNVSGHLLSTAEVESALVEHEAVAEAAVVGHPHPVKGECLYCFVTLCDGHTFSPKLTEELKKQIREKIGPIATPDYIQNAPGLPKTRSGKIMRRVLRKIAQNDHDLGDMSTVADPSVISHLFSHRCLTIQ
UniProt P24752: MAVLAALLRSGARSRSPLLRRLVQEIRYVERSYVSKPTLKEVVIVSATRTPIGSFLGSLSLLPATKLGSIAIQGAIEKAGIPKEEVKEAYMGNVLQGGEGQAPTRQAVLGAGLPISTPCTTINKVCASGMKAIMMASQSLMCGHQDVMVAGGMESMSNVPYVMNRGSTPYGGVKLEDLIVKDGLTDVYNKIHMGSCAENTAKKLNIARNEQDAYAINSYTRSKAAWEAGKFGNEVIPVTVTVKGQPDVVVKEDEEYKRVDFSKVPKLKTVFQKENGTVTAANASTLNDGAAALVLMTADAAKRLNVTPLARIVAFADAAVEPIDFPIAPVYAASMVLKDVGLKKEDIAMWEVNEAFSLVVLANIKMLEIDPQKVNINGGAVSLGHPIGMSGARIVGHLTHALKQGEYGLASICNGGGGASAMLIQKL
UniProt P16219: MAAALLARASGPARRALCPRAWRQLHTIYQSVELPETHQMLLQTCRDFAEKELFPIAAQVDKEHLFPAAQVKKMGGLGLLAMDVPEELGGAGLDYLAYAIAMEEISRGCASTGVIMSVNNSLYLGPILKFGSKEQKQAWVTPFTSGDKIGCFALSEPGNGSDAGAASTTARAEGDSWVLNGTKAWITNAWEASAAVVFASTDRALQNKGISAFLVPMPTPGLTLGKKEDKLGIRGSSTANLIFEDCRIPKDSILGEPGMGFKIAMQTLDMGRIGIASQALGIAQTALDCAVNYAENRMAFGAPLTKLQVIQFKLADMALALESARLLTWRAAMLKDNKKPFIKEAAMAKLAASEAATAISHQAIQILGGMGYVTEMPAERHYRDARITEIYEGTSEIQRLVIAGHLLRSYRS
UniProt Q9NZ32, whole entry, looked up: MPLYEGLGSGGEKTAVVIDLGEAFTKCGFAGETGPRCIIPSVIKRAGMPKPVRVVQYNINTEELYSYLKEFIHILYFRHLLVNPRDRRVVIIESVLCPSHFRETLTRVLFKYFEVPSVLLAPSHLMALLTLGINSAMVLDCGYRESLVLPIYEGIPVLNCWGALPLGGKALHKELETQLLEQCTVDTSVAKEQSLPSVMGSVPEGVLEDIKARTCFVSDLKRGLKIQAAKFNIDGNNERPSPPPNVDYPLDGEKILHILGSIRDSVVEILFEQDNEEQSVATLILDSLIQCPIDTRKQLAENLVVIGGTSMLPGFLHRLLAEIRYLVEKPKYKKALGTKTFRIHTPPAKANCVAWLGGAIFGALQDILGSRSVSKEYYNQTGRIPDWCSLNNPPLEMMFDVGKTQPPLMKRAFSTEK
UniProt O14639: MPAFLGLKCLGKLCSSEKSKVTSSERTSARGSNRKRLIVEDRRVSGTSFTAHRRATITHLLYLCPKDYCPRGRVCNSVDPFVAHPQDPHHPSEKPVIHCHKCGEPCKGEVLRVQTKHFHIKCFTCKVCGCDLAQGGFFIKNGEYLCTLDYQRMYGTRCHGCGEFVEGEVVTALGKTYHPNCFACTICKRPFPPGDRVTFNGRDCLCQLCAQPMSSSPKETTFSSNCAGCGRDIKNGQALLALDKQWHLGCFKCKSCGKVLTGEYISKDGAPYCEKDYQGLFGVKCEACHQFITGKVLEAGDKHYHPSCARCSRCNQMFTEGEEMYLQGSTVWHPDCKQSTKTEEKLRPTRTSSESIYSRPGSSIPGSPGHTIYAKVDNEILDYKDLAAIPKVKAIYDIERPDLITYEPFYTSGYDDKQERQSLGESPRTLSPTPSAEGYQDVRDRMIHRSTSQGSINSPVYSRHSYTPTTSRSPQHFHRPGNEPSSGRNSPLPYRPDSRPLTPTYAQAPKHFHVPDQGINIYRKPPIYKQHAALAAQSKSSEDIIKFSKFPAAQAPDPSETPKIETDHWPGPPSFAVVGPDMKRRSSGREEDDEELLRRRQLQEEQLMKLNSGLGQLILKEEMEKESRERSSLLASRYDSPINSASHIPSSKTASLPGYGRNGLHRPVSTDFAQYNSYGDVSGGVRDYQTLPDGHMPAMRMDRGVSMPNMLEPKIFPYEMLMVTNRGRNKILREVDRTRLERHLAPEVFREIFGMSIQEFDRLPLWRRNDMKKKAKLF
UniProt Q9UKU7: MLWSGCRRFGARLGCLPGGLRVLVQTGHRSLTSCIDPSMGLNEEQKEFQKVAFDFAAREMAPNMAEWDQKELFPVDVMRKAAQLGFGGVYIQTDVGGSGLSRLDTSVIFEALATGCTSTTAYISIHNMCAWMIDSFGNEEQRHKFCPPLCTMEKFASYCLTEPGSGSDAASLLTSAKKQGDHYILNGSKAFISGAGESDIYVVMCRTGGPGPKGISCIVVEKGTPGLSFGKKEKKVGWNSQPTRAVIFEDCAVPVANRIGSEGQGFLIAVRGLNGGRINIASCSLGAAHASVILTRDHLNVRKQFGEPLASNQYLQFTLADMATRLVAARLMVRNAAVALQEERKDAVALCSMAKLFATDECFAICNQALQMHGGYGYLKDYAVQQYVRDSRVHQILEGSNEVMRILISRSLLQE
UniProt Q9NRN7: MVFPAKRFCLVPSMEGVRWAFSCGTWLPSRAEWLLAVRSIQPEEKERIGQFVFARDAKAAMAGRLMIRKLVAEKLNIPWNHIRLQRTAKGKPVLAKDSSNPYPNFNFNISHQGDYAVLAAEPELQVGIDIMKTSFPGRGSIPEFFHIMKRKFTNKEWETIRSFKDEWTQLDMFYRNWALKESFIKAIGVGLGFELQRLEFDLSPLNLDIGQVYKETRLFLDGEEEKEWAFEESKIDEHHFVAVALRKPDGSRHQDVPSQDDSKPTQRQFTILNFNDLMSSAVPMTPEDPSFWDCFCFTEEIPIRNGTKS
UniProt P28288: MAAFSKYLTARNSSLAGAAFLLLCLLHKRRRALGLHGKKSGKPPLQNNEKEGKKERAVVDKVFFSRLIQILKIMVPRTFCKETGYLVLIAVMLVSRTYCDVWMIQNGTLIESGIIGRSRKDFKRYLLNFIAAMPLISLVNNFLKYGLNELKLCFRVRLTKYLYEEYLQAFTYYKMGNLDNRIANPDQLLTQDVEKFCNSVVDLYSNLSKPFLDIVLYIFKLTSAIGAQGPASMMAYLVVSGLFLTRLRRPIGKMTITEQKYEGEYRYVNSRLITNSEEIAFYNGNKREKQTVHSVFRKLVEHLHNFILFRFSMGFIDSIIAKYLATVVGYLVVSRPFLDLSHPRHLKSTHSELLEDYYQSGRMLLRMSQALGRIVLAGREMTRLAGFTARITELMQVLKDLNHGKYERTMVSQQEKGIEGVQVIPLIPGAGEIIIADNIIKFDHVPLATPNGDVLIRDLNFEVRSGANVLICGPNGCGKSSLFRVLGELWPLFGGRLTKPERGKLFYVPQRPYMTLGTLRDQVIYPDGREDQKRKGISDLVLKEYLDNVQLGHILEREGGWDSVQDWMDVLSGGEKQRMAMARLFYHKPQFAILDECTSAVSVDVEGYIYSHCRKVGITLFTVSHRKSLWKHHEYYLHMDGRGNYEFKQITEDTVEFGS
UniProt Q7Z6V5: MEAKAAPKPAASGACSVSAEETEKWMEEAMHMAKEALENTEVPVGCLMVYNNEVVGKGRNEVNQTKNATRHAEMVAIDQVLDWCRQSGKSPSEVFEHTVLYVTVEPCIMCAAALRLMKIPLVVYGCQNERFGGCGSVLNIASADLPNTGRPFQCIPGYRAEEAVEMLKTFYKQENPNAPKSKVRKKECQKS
UniProt Q8NE71: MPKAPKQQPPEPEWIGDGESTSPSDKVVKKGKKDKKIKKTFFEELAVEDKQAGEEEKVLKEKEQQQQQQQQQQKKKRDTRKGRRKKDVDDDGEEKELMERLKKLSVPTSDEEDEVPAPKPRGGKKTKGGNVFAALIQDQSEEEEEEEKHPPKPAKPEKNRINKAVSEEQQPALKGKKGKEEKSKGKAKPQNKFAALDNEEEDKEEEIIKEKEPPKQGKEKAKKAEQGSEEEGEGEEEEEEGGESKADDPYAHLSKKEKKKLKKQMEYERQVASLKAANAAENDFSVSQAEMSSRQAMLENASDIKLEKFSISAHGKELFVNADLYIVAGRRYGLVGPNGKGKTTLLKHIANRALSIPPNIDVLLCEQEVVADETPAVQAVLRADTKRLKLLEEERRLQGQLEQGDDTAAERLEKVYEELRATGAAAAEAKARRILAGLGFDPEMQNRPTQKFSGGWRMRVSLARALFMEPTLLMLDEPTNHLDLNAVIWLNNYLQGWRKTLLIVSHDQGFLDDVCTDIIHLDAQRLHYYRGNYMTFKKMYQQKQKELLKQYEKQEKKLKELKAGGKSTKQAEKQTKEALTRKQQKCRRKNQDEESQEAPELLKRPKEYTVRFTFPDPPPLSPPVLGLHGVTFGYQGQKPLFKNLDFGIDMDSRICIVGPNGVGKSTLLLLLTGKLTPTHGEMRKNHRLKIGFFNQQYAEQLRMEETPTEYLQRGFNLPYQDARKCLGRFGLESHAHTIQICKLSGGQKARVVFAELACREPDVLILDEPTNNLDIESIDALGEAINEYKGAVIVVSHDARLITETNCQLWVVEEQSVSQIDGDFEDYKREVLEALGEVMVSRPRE
UniProt O43707, whole entry, looked up: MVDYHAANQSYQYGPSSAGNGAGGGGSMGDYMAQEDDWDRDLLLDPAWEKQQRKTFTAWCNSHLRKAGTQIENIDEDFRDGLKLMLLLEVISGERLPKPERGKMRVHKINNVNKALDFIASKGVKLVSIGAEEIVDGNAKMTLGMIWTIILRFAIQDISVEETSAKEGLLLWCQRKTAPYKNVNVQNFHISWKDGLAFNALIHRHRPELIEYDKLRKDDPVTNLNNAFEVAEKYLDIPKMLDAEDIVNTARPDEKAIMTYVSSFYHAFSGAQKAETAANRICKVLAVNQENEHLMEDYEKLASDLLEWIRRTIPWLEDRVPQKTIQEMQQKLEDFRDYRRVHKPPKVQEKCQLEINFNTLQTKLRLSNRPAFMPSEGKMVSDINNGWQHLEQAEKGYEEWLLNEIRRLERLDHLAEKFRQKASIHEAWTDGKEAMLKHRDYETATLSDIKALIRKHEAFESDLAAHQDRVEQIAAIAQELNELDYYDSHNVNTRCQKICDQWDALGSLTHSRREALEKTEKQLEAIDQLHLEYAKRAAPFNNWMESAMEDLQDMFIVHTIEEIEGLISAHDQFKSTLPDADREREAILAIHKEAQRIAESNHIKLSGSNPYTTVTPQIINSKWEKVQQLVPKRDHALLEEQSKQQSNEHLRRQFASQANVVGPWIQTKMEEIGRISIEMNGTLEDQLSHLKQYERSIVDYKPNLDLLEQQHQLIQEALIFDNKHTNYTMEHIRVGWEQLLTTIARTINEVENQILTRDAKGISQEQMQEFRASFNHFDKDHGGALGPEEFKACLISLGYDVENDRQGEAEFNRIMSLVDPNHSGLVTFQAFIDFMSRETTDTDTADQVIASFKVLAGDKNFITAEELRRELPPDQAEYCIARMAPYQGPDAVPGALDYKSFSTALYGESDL
UniProt Q9H568: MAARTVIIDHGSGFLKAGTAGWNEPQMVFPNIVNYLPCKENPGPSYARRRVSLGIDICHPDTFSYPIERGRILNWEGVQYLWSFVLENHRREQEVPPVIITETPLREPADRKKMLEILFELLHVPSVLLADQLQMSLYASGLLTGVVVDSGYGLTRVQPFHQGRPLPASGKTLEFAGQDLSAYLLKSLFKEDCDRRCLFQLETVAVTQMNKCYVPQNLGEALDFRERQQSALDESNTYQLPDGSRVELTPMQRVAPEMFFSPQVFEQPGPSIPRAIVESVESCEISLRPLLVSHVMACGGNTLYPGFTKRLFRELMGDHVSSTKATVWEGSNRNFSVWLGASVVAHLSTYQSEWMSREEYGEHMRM

The targets below were run with Cc1cc(SCc2sc(-c3ccc(C(F)(F)F)cc3)nc2C)ccc1OCC(=O)O (assay: log2 fold change, soluble protein after heating vs DMSO (PISA); higher = thermal stabilisation; K562 cells, 10 uM, 30 min; active = over 0.2 and 3.5 SD of the protein, either way, in both replicates (recomputed)).
Summary of the method: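 K562 cells (2×10^6 cells/mL) were treated with 10 μM compound for 30 min, and aliquots were heated for 3 min over 48°C-58°C. Pooled aliquots were extracted in PBS with 0.5% NP-40 at 4°C, and the supernatant after 21,000xg for 90 min was measured by TMTpro 16plex LC-MS/MS with channel sums equalised. Reported thermal stability, relative to control samples and from duplicates, is a log2 fold change.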

log2 fold change, inactive:
ACACA isoform 4 (UniProt Q13085) 0.18
ACSS2 isoform 2 (UniProt Q9NR19) 0.005
ACOX1 isoform 2 (UniProt Q15067) 0.011
ACAT1 (UniProt P24752) -0.035
ACTR2 (UniProt P61160) -0.014
ACADS (UniProt P16219) 0.008
ADAM10 (UniProt O14672) -0.013
ABHD12 isoform 2 (UniProt Q8N2K0) 0.079
ADAR isoform 4 (UniProt P55265) -0.064
ACTR10 (UniProt Q9NZ32) 0.008
ABLIM1 (UniProt O14639) 0.207
ABCF3 (UniProt Q9NUQ8) 0.141
ABRAXAS2 (UniProt Q15018) -0.058
ACTA1 (UniProt P68133) -0.064
ADAM17 (UniProt P78536) -0.014
A2M (UniProt P01023) -0.101
ACADSB (UniProt P45954) 0.068
ACOT8 (UniProt O14734) 0.005
ABCC4 (UniProt O15439) -0.052
ACAD8 (UniProt Q9UKU7) -0.047
ACY1 (UniProt Q03154) -0.026
AASDHPPT (UniProt Q9NRN7) 0.019
ACTL6A (UniProt O96019) 0.005
ABCB7 isoform 2 (UniProt O75027) -0.012
ADAL (UniProt Q6DHV7) -0.019
ACTR6 (UniProt Q9GZN1) 0.035
ACO1 (UniProt P21399) 0.016
ACTR3 (UniProt P61158) -0.005
ABCD3 (UniProt P28288) 0.009
ACAA1 (UniProt P09110) -0.012
ABCE1 (UniProt P61221) -0.044
ADAT2 (UniProt Q7Z6V5) -0.05
ABCF1 (UniProt Q8NE71) 0.014
ACTN4 (UniProt O43707) -0.036
AARS (UniProt P49588) 0
ACTL8 (UniProt Q9H568) -0.008

Reprinted at random: two records from the list, in no set order.
log2 fold change, inactive:
ADAT2 (UniProt Q7Z6V5) -0.05
ACTA1 (UniProt P68133) -0.064
